“And” between values parts separate entries of the source, which are not always exact repeats. Identical values can stand only once. Out of some 360,000 compounds screened, about 7,500 (2.1%) were called active. This list was built around the results that the source calls inconclusive (neither active nor inactive); the mix of calls is not that of the screen. The call rests on the fitted dose curve; in most records, active means well fitted inhibition curve with a large enough effect; inconclusive means small, poorly fitted or top-dose-only effect, or effect the other way; inactive means flat fitted curve, though single readings scatter. Potencies beside an inconclusive call are fits to weak or partial responses and may not hold up.
Experiment: Nrf2 qHTS screen for inhibitors; further: nearly all actives have a fitted effect of over 60% in size
Details: A549 ARE-Fluc reporter, luciferase luminescence, 18-24 h; activity change, negative = inhibition: at 46 µM (top of the series)
Summary of the method: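 Nrf2 function is reported as luminescence of an ARE-controlled luciferase in A549 cells. Compounds were tested at several concentrations, and a CellTiter-Fluor read on the same wells flagged cytotoxicity.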
On the % scale 0 is the no-effect control and ±100 the full control effect; potency means the concentration at half of the fitted maximal effect.

| Compound | activity change, negative = inhibition | Potency |
| --- | --- | --- |
| O=c1c2cc3c(cc2nc2sc(Nc4ccccc4)nn12)OCO3 | inactive: 12.3% [at 9.27 µM] | – |
| FC(F)(F)c1cnc(C(c2ccccn2)c2ncn[nH]2)c(Cl)c1 (stereo unspecified) | – | inconclusive: 32.6 µM [falling, single point] |
| Cc1ccc(-n2ncc(C(=O)NCCN3CCc4ccccc4C3)c2C2CCN(C(=O)OC(C)(C)C)CC2)cc1C | – | inconclusive: 20.6 µM [falling, partial curve, poor fit] |
| NC(=S)N/N=C/c1coc2c(ccc3ccccc32)c1=O | – | inactive |
| O=C(N=C1SC2CS(=O)(=O)CC2N1c1ccc(F)c(Cl)c1)C1CC1 (stereo unspecified) | – | inconclusive: 18.4 µM [falling, single point] |
| C=CCn1c(=O)c2ccc(C(=O)NCc3ccccc3)cc2n(Cc2ccc(Cl)cc2)c1=O | – | inconclusive: 29.1 µM [falling, single point] |
| COc1ccccc1CNc1nc2ccc(C)cc2n2nnnc12 | – | inconclusive: 32.6 µM [activator, single point] |
| Cc1cc(C)c2c(NC(=O)CCl)nn(C)c2n1 | – | inconclusive: 18.4 µM [falling, single point] |
| O=[N+]([O-])c1cc(-c2nc(-c3ccncc3)no2)cc([N+](=O)[O-])c1 | – | inconclusive: 8.2 µM [activator, partial curve, poor fit] |
| O=C1CC(c2c(Cl)cccc2Cl)c2c(ccc3ccccc23)N1 (stereo unspecified) | – | inconclusive: 23.1 µM [falling, single point] |
| Fc1ccc(Nc2ncnc3sc4c(c23)CCC4)cc1 | – | inconclusive: 23.1 µM [falling, partial curve, poor fit] |
| CCn1cc(/C=N\NC(=O)c2c[nH]c3ccccc23)c(C)n1 | – | inconclusive: 8.2 µM [activator, partial curve, poor fit] |
| COc1cc(NC(=O)c2cc3nc(C4CC4)cc(C(F)(F)F)n3n2)c(OC)cc1Cl | – | inconclusive: 20.6 µM [activator, partial curve, poor fit] |
| NC(=O)c1cc(S(=O)(=O)N2CCCC2)ccc1OCCOc1ccccc1F | – | inconclusive: 3.26 µM [activator, full curve, poor fit] |
| Cc1ccc(C2=N/C(=C/N3CCOCC3)C(=O)O2)cc1 | – | inconclusive: 11.6 µM [activator, partial curve] |
| Cc1ccnc(NC(=O)CCC(=O)N(CC(=O)NCc2ccc(F)cc2)Cc2ccco2)c1 | – | inconclusive: 29.1 µM [activator, single point] |
| CCc1cccc(C)c1NC(=O)CN1CCN(S(=O)(=O)c2ccc(C(C)(C)C)cc2)CC1 | – | inconclusive: 18.4 µM [falling, single point] |
| CCN(CC)S(=O)(=O)c1ccc(C)c(NC(=S)N2CCN(Cc3ccc4c(c3)OCO4)CC2)c1 | – | active: 6.51 µM |
| Cn1c(=O)cc(SCC(=O)NCC2CCCO2)c2ccccc21 (stereo unspecified) | – | inconclusive: 14.6 µM [falling, partial curve] |
| O=C(NCC1CCCO1)C(c1cccs1)N(Cc1ccccc1)C(=O)c1ccc(-c2ccccc2)[nH]1 (stereo unspecified) | – | inconclusive: 18.4 µM [falling, single point] |
| CCNc1nc(NCC)nc(N/N=C/c2ccc([N+](=O)[O-])o2)n1 | – | inconclusive: 23.1 µM [falling, single point] |

| Compound | activity change, negative = inhibition | Potency |
| --- | --- | --- |
| O=C(Cc1ccccc1F)Nc1cccc(S(=O)(=O)N2CCOCC2)c1 | – | inconclusive: 6.51 µM [activator, partial curve, poor fit] |
| CCN(c1ccccc1)S(=O)(=O)c1nnc(NC(=O)c2ccccc2OC)s1 | – | inconclusive: 164 nM [activator, full curve, poor fit] and inconclusive: 11.6 µM [activator, partial curve, poor fit] |
| N#Cc1nc(-c2ccccc2)oc1NCC1CCCO1 (stereo unspecified) | – | inconclusive: 4.61 µM [activator, partial curve, poor fit] |
| Brc1c(CSc2nncn2-c2ccccc2)nc2ncccn12 | – | inactive |
| O=Cc1c[nH]c2ccc(NC(=O)OCc3ccccc3)cc12 | – | inconclusive: 4.61 µM [activator, full curve] |
| CCN(CC)c1ccc(CNCCCSc2nnnn2C)cc1 | – | inactive |
| CCCCCOC(=O)CSc1nc2c(c(=O)[nH]c(=O)n2C)n1Cc1ccc(Cl)cc1 | – | inactive |
| CCN(C(=O)CN1CCN(S(=O)(=O)c2cc(Cl)ccc2Cl)CC1)c1c(N)n(Cc2ccccc2)c(=O)[nH]c1=O | – | inactive |
| CC(Nc1nc(-c2ccc(F)cc2)cs1)c1nc2cc(C(F)(F)F)ccc2n1CCCO (stereo unspecified) | – | inconclusive: 13 µM [falling, single point] |
| COCCNc1nc2c(c(=O)n(C)c(=O)n2C)n1Cc1c(F)cccc1Cl | – | active: 18.4 µM |
| O=C(COc1ccc(Br)cc1Br)NC(=S)Nc1cccc(CO)c1 | – | inconclusive: 9.2 µM [activator, partial curve] |
| COc1ccc(Cl)cc1NC(=O)CSc1cn(CC(=O)N2CCCCC2)c2ccccc12 | – | inconclusive: 29.1 µM [falling, single point] |
| CCOc1ccc(CN2C(=O)c3ccccc3Sc3ccc(C(=O)NCc4ccco4)cc32)cc1 | – | inactive |
| CCNc1nc(Oc2ccc(C#N)cc2)cc(C(F)(F)F)n1 | – | inconclusive: 14.6 µM [falling, single point] |
| COc1ccc(Cn2ncc3c4sc(C)cc4n(C)c3c2=O)cc1F | – | inactive |
| Cc1ccc(NC(=O)C2CCN(S(=O)(=O)c3ccc4c(c3)CC(C)N4C(=O)C3CCC3)CC2)nc1 (stereo unspecified) | – | inconclusive: 29.1 µM [falling, single point] |
| O=C(Cc1ccc([N+](=O)[O-])cc1)Nc1nnc(C2CC2)s1 | – | inactive |
| COc1ccc(NC(=O)c2ccc3c(=O)n(-c4ccc(OC)cc4OC)c(=S)[nH]c3c2)c(OC)c1 | – | active: 25.9 µM |
| CN(c1ccc(C(=O)NCc2cccnc2)cc1)S(=O)(=O)c1ccc(Cl)cc1 | – | inconclusive: 16.4 µM [falling, partial curve, poor fit] |
| O=C(c1ccco1)N1CCN(Cc2c(F)cccc2Cl)CC1 | – | inconclusive: 18.4 µM [activator, partial curve, poor fit] |
